B1: il10ra_site1_normal_mot_HHH_b2_03220_af2_000000223_0001_23_40_H_._HHH_b1_03379_af2_0001_0000400019_0000001_0_af2pred_0001 (protein)
chain: SSSSSSSEARRVVELIREALRIEDPEEAEEVLREAEEIAEELGDELLRLMVEAAKRRLSSSSSSS
B2: il10ra_site1_sap_24_mot_HHH_b1_05254_000000006_0001_1_19_H_._HHH_b2_03810_af2_0001_0000400052_0000001_0_0001 (protein)
chain: SSSSEEVEELLKQVEEALKEGDPKKALHLLWRALKLAVEEDDPELIEEIYELLRETWERSHSSSS
B3: il10ra_site1_normal_mot_HHH_b2_00230_000000227_0001_1_19_H_._HHH_b1_03982_0001_0000200023_0000001_0 (protein)
chain: SSSSDESYEIVRKAIEEAVEALRNGNPEEARKIVEEAIELIEELGNVNARHVLEHLLRIINSSSS
B4: il10ra_site1_normal_mot_5fda0655e6834f3f331eaa9f580e88ed_0001_af2_000000239_0001_36_50_H_._a6da520ff4a02840130205282d0b8d49_0001_0001_0000100004_0000001_0_af2pr … (protein)
chain: SREFQQLLAALEAAGGDPRQVELLLEAALRLLGDPAVEKVLRLLREALERGIPPEELLKELEEEG
B5: il10ra_site1_normal_mot_HHH_b1_06994_000000193_0001_40_55_H_._HHH_b1_06996_0001_0000100003_0000001_0_af2pred_0001 (protein)
chain: SSSSDREEQLARAALRLVEILIKAGDEEQARLFLRNAKYSVERLGDDEILRKLEELEEELSSSSS
B6: il10ra_site1_sap_27_mot_HHH_b1_06128_000000102_0001_1_20_H_._HHH_b1_02043_af2_0001_0000100004_0000002_0_0001 (protein)
chain: SSSSDVEEEVRELLEEAQRYYEEGNPQEVFRLIEEAIKVASEHGDEEAQKLVHEFLHEMFGSSSS
B7: il10ra_site1_sap_22_mot_HHH_b1_06804_000000054_0001_40_54_H_._HHH_b1_06220_0001_0000300030_0000002_0_0001_af2pred_dldesign_0_af2pred (protein)
chain: SSSSSPEVDALVRRSVELAKQLEDKEERLRAVRYALAIAEAANNAAAAALAREAIEEILESSSSS
B8: il10ra_site1_normal_mot_8756ee2cf497b5429c717dfc0c0bcfd6_0001_000000186_0001_1_13_H_._HHH_b1_05110_0001_0000100003_0000001_0_af2pred_0001 (protein)
chain: SSSSSEELERVQELLRRLAELISDGDDEEARQLIEEAKELIEEANSEVLRAILEFLEKLLNSSSS
B9: il10ra_site1_normal_mot_HHH_b2_00984_000000042_0001_1_20_H_._HHH_b2_04190_0001_0001400028_0000001_0 (protein)
chain: SSSSSSDLEELLEELEEAVREGDRELVSRIAQRAARHAMELGDQETLRELWELIQKFARSSSSSS
B10: il10ra_site1_sap_14_mot_HHH_b2_02649_000000088_0001_38_55_H_._81d5ae1f4baf8c7fe012e9a1203c0b55_0001_af2_0001_0000600011_0000001_1_0001 (protein)
chain: SSSSDEERHELFELLREIAELEHDGNPEEARKLLEEAQEIAEEAGNRLFLWQLRFLEETISSSSS
B11: il10ra_site1_normal_mot_HHH_b1_02809_af2_000000277_0001_40_57_H_._HHH_b2_06724_0001_0000600014_0000001_0_af2pred_0001 (protein)
chain: SSSSSSSDEEAVRRLLEAAKLIEDEELLKLSLKFAEALARALNNEELERLIKEVEEEVSSSSSSS
B12: il10ra_site1_normal_mot_HHH_b2_06752_000000207_0001_1_21_H_._HHH_b1_05292_0001_0000300020_0000002_0_af2pred_0001 (protein)
chain: SSSSSHDQEAARAIEKLAKLADTPELLKLALRSARALLEATKDEEAQEILEEVERLLEELLSSSS
B13: il10ra_site1_normal_mot_HHH_b1_02131_000000111_0001_1_18_H_._HHH_b1_01897_0001_0000500034_0000001_0 (protein)
chain: SSSSDQEVLELLIEAVRLLFRGNPEEARKLAEQAEEVAEELGDPRLEEAVRIVLRAIELASSSSS
B14: il10ra_site1_sap_20_mot_HHH_b1_00103_000000293_0001_1_15_H_._HHH_b2_04127_0001_0000200016_0000001_0_0001 (protein)
chain: SSSSSSSEEIEELFKLAEKAAKIDDEEEARKVLEEAAELAEELNNRVVLYSVRHLLKDLSSSSSS
B15: il10ra_site1_sap_11_mot_HHH_b1_01082_af2_000000031_0001_3_19_H_._HHH_b1_05633_0001_0000200008_0000001_0_0001 (protein)
chain: SSSSSSEEVFELIREAAELLADGNPEEAREVLEEAQRLAEEENSPNMLMNLRYLEEQVNSSSSSS
B16: il10ra_site1_sap_16_mot_HHH_b2_00092_000000181_0001_22_39_H_._750e19d4ca9b34c144e44c01c74de867_0001_af2_0001_0000300026_0000001_0_0001_af2pred_0001 (protein)
chain: SSSSDEEEVEELIKEIEELLEEGDPEKAVELIRRLVELAHELRDPELARIVRELSRLVVRISSSS
B17: il10ra_site1_normal_mot_a445c54e3280ddb545be3b99cff61ffd_0001_1_000000013_0001_36_50_H_._HHH_b1_00305_0001_0000300014_0000001_0_af2pred_0001 (protein)
chain: SSSSSSELEEHIEELVKEFGLSEEQERALRYLAKFAKEIGASEEIIERSLENAARLLRLGSSSSS
B18: il10ra_site1_sap_28_mot_HHH_b1_04940_000000219_0001_1_18_H_._HHH_b1_03345_af2_0001_0000100005_0000001_1_0001_af2pred_dldesign_0_af2pred (protein)
chain: SSSSDLGEILLERAIRALRLLGADEAVAEAEKKLALYKETKDKSLLTSTLQEAVERARELESSSS
B19: il10ra_site1_sap_7_mot_HHH_b1_02062_000000185_0001_1_20_H_._HHH_b1_06583_0001_0000100001_0000001_0_0001 (protein)
chain: SSSSDEERRRVYELSRRVAELDHEGNPEEAERVLEEAIELAEEANNRVMLAVLEHLERILRSSSS

Some of the results follow.

The assay has as its target il10ra, Q13651. In words: yeast display titration.
As to B1, the “apparent Kd” value was “inactive: no binding seen”.

As to B2, the “apparent Kd” value is “inactive: no binding seen”.

B3: the “apparent Kd” value is “inactive: no binding seen”.

Regarding B4, the “apparent Kd” value was “inactive: no binding seen”.

On to B5, for which the “apparent Kd” value was “inactive: no binding seen”.

As to B6, the “apparent Kd” value was “inactive: no binding seen”.

In the case of B7, the “apparent Kd” value was “inactive: no binding seen”.

Consider B8, for which the “apparent Kd” value was “inactive: no binding seen”.

Consider B9, for which the “apparent Kd” value is “inactive: no binding seen”.

Regarding B10, the “apparent Kd” value is “inactive: no binding seen”.

Regarding B11, the “apparent Kd” value was “inactive: no binding seen”.

For the molecule B12, the “apparent Kd” value was “inactive: no binding seen”.

As for B13, the “apparent Kd” value is “inactive: no binding seen”.

With B14, the “apparent Kd” value is “inactive: no binding seen”.

As to B15, the “apparent Kd” value was “inactive: no binding seen”.

B16: the “apparent Kd” value was “inactive: no binding seen”.

For the molecule B17, the “apparent Kd” value was “inactive: no binding seen”.

With B18, the “apparent Kd” value was “inactive: no binding seen”.

As for B19, the “apparent Kd” value is “inactive: no binding seen”.

The record behind these values is publication PMC10163288.
